Consider 14 compounds from patent publication US6458754B1, “Encapsulated perfume particles and detergent compositions containing said particles” (The Procter & Gamble Company, priority 1998, dated 2002).

The nature of this data set: Odor detection threshold (ODT) by gas chromatograph with sniff port and panelists. The note with it: odor detection threshold of HIA perfume ingredient; tested at 50 ppb at the sniff port. More on the design: species or system human.

In turn, `COc1ccc(C=O)cc1` [Anisic Aldehyde] returned an ODT of under 50 PPB.

`CC/C=C\CCOC(=O)c1ccccc1O` [Cis-3-Hexenyl Salycilate] showed an ODT of under 50 PPB.

Turning to `CC1=CC(C)C(C=O)CC1` (centres unmarked) [Cyclal C], the ODT is on record as under 50 PPB.

Regarding `C/C=C/C(=O)C1=C(C)C=CCC1(C)C` [Damascenone], the ODT was under 50 PPB.

Compound `C/C=C/C(=O)C1C(C)=CCCC1(C)C` (stereo not drawn) [Damascone Alpha] displayed an ODT of under 50 PPB.

`CCOC(=O)C(C)CC` (centres unmarked) [Ethyl-2-methyl Butyrate]: the ODT is listed as under 50 PPB.

Turning to `C=CCc1ccc(O)c(OC)c1` [Eugenol], the ODT is under 50 PPB.

The compound `CC(=O)OC1CC2CC1C1CC=CC21` (centres unmarked) [Flor Acetate] gave an ODT of under 50 PPB.

Regarding `CCC(=O)OC1CC2CC1C1CC=CC21` (centres unmarked) [Frutene], the ODT is given as under 50 PPB.

Turning to `CC(=O)/C=C/C1=C(C)CCCC1(C)C` [Ionone Beta], the ODT is recorded as under 50 PPB.

As to `CC(C=O)Cc1ccc(C(C)(C)C)cc1` (centres unmarked) [Lilial], the ODT is reported as under 50 PPB.

Take `C=CC(C)(O)CCC=C(C)C` (centres unmarked) [Linalool]: the ODT is under 50 PPB.

For the compound `CCCCCCC#CC(=O)OC` [Methyl Octine Carbonate], the ODT was under 50 PPB.

Compound `CC(C)=CC1CC(C)CCO1` (centres unmarked) [Rose Oxide] returned an ODT of under 50 PPB.
